Experimental data as given in US20240376165A1, “COMPOSITION COMPRISING VGLL1 PEPTIDE FOR TREATMENT OF CANCER” (ONECUREGEN CO., LTD., priority 2020, published 2024).
These are yes or no findings as the source states them, for the method shown. Binding seen in cells or lysates may run through a third protein. Some binding calls cover weakened binding; strength is not graded here. Sequences can lack the tags named with a protein.

Amino acid sequences for entries named in this document (tags omitted).
UniProt Q15561: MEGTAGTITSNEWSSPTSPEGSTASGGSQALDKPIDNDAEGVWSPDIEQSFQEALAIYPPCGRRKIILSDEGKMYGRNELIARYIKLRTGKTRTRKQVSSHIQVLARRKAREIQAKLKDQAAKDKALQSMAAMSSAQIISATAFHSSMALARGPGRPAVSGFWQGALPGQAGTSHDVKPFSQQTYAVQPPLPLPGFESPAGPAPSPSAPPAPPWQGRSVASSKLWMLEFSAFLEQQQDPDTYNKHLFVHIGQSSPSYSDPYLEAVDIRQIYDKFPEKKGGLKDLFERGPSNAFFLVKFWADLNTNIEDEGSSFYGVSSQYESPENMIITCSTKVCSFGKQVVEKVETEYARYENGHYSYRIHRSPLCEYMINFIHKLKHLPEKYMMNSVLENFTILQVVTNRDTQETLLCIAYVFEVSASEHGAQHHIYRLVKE

B1: HA-VGLL1 (WT), expressed from pcDNA3-HA-VGLL1 (protein, not shown: small tags and cut ends)
chain: MEEMKKTAIRLPKGKQKPIKTEWNSRCVLFTYFQGDISSVVDEHFSRALSNIKSPQELTPSSQSEGVMLKNDDSMSPNQWRYSSPWTKPQPEVPVTNRAANCNLHVPGPMAVNQFSPSLARRASVRPGELWHFSSLAGTSSLEPGYSHPFPARHLVPEPQPDGKREPLLSLLQQDRCLARPQESAARENGNPGQIAGSTGLLFNLPPGSVHYKKLYVSRGSASTSLPNETLSELETPGKYSLTPPNHWGHPHRYLQHL
B2: HA-VGLL1-S50A, expressed from pcDNA3-HA-VGLL1-S50A (protein, not shown: small tags and cut ends)
chain: MEEMKKTAIRLPKGKQKPIKTEWNSRCVLFTYFQGDISSVVDEHFSRALANIKSPQELTPSSQSEGVMLKNDDSMSPNQWRYSSPWTKPQPEVPVTNRAANCNLHVPGPMAVNQFSPSLARRASVRPGELWHFSSLAGTSSLEPGYSHPFPARHLVPEPQPDGKREPLLSLLQQDRCLARPQESAARENGNPGQIAGSTGLLFNLPPGSVHYKKLYVSRGSASTSLPNETLSELETPGKYSLTPPNHWGHPHRYLQHL
B3: HA-VGLL1-S124A, expressed from pcDNA3-HA-VGLL1-S124A (protein, not shown: small tags and cut ends)
chain: MEEMKKTAIRLPKGKQKPIKTEWNSRCVLFTYFQGDISSVVDEHFSRALSNIKSPQELTPSSQSEGVMLKNDDSMSPNQWRYSSPWTKPQPEVPVTNRAANCNLHVPGPMAVNQFSPSLARRAAVRPGELWHFSSLAGTSSLEPGYSHPFPARHLVPEPQPDGKREPLLSLLQQDRCLARPQESAARENGNPGQIAGSTGLLFNLPPGSVHYKKLYVSRGSASTSLPNETLSELETPGKYSLTPPNHWGHPHRYLQHL

What follows are binders tested against GFP-TEAD4, expressed from the GFP-TEAD4 vector (UniProt Q15561) (assay: co-immunoprecipitation with HA antibody agarose, western blot with GFP antibody).
With B1 the binding was “binds”.
For B2, the binding was “binds”.
B3 was tested, and the binding was “binds”.
